Laboratory results: publication PMC12431657, “Discovery and mechanistic insights of dibenzoylmethane as a broad spectrum inhibitor of coronavirus” (PLOS Pathogens, 2025)
Counter-ions that a name gives are not always drawn. Like-named read-outs stand apart in the source and are kept apart here. The whole screen tested about 3,300 compounds, of which about 60 (2%) showed an effect of 50% or more. The list shows a part of the results. Peptide text beside a SMILES is read from it.

System: HCoV-OC43
Set-up: species or system RD; HTS, protection from HCoV-OC43 induced cell death, luminescent cell viability (CellCounting-Lite 2.0), inhibition rate
Conditions: 24 h post infection, 1 h compound pre-incubation, 10 µM, inhibitor

Row | SMILES | OC43 Inhibition rate [%] | OC43 Inhibition rate (OC43 Inhibition rate, 24 h) [%]
1 | C/C=C(/C)C(=O)O[C@H]1C(C)=C[C@]23C(=O)[C@@H](C=C4COC(C)(C)O[C@H]4[C@]12O)[C@H]1[C@@H](C[C@H]3C)C1(C)C [Ingenol-5,20-acetonide-3-O-angelate] | 69.8 | –
2 | CC[C@@H](C(=O)[C@@H](C)[C@@H](O)[C@H](C)CCc1ccc(C)c(O)c1C(=O)O)[C@H]1O[C@](CC)([C@H]2CC[C@](O)(CC)[C@H](C)O2)C[C@@H]1C [Lasalocid] | – | -1.4
3 | C=C1C[C@@]23CC[C@H]4[C@@](C)(CCC[C@@]4(C)C(=O)O[C@@H]4O[C@H](CO)[C@@H](O)[C@H](O)[C@H]4O[C@@H]4O[C@H](CO)[C@@H](O)[C@H](O)[C@H]4O)[C@@H]2CC[C@]1(O[C@@H]1O[C@H](CO)[C@@H](O)[C@H](O[C@@H]2O[C@H](CO)[C@@H](O)[C@H](O)[C@H]2O)[C@H]1O[C@@H]1O[C@H](CO)[C@@H](O)[C@H](O)[C@H]1O)C3 [Rebaudioside D] | 1.1 | –
4 | OCc1ccoc1 [3-Furanmethanol] | -0.5 | –
5 | N#CS [Sodium thiocyanate] | 3.6 | –
6 | O=C(O)CCCCCCCCCCCC(=O)O [Tridecanedioic acid] | -1.6 | –
7 | O=C(/C=C/c1ccc(O)cc1)OC[C@H]1O[C@@H](Oc2c(-c3ccc(O)cc3)oc3cc(O)cc(O)c3c2=O)[C@H](O)[C@@H](O)[C@@H]1O [Tiliroside] | 4.5 | –
8 | OCCc1ccc(O)cc1 [Tyrosol] | -0.1 | –
9 | Oc1cc(O)c2c(c1)O[C@@]1(c3ccc(O)c(O)c3)Oc3cc(O)c4c(c3[C@@H]2[C@H]1O)O[C@H](c1ccc(O)c(O)c1)[C@H](O)[C@H]4c1c(O)cc(O)c2c1O[C@H](c1ccc(O)c(O)c1)[C@H](O)C2 [Cinnamtannin B-1] | 0.2 | –
10 | COc1ccccc1C(=O)O [2-Methoxybenzoic acid] | 1.2 | –
11 | CC(C)C12CCC(C)(CC1)O2 [1,4-Cineole] | 0 | –
12 | CC(=O)N[C@@H](C)C(=O)O [Ac-Ala-OH] | -2 | –
13 | CN(C)[C@@H]1C(O)=C(C(N)=O)C(=O)[C@@]2(O)C(O)=C3C(=O)c4c(O)ccc(Cl)c4[C@@H](O)[C@H]3C[C@@H]12 [Demeclocycline (hydrochloride)] | 48 | –
14 | CCCCCCCCC(=O)O [Nonanoic acid] | 0.8 | –
15 | C[C@H](CO[C@@H]1O[C@H](CO)[C@@H](O)[C@H](O)[C@H]1O)[C@H]1CC[C@@]2(CC[C@]3(C)[C@H](CC[C@@H]4[C@@]5(C)CC[C@H](O[C@@H]6O[C@H](CO)[C@@H](O)[C@H](O)[C@H]6O[C@@H]6OC[C@@H](O)[C@H](O)[C@H]6O)[C@@](C)(CO)[C@@H]5CC[C@]43C)[C@H]2O)CO1 [Hosenkoside F] | 2.3 | –
16 | Cc1ncc(CO)c(CO)c1O [Pyridoxine (hydrochloride)] | – | -0.3
17 | COc1c(O)cc2oc3cc4c(c(O)c3c(=O)c2c1CC=C(C)C)CCC(C)(C)O4 [3-Isomangostin] | 41.9 | –
18 | Oc1ccc2[nH]ccc2c1 [5-Hydroxyindole] | 1.1 | –
19 | O=C(O)c1cc(O)c(O)c(O)c1 [Gallic acid] | – | -0.1

Row | SMILES | OC43 Inhibition rate [%] | OC43 Inhibition rate (OC43 Inhibition rate, 24 h) [%]
20 | CSCCC(N)C(=O)O (racemic) [DL-Methionine] | -2.1 | –
21 | CC(C)CCC(=O)O [4-Methylpentanoic acid] | -0.5 | –
22 | CCCCCCC(=O)CCCCCC/C=C/C[C@@H](O)[C@H](O)[C@@](N)(CO)C(=O)O [Myriocin] | -0.6 | –
23 | C[C@@]1(C(=O)O)CC[C@]2(C)CC[C@]3(C)C4=CC(=O)c5c(cc(O)c(O)c5C=O)[C@]4(C)CC[C@@]3(C)[C@@H]2C1 [Demethylzeylasteral] | 8.5 | –
24 | C[n+]1cccc(C(=O)[O-])c1 [Trigonelline (chloride)] | – | 1.2
25 | CC(C)=CCc1c2ccoc2c(O)c2oc(=O)ccc12 [Alloimperatorin] | 0.8 | –
26 | CC(=O)OCCc1ccc(O)c(O)c1 [Hydroxytyrosol acetate] | -1 | –
27 | O=C(CC(=O)c1ccccc1)c1ccccc1 [DBM, dibenzoylmethane] | 102.9 | –
28 | COc1ccc2c(=O)cc(-c3ccccc3)oc2c1 [7-Methoxyflavone] | 0 | –
29 | C[C@@H]1CC[C@@]2(OC1)O[C@H]1C[C@H]3[C@@H]4CC=C5C[C@@H](O)C[C@@H](O)[C@]5(C)[C@H]4CC[C@]3(C)[C@H]1[C@@H]2C [Ruscogenin] | 4.9 | –
30 | COc1cc(/C=C/C(=O)O[C@@H]2C[C@@](O)(C(=O)O)C[C@@H](O)[C@@H]2O)ccc1O [3-Feruloylquinic acid] | -3 | –
31 | OC[C@H]1O[C@H](OC[C@H]2O[C@H](O[C@H]3[C@H](O)[C@@H](O)[C@@H](O)O[C@@H]3CO)[C@H](O)[C@@H](O)[C@@H]2O[C@H]2O[C@H](CO)[C@@H](O)[C@H](O)[C@H]2O)[C@H](O)[C@@H](O)[C@@H]1O [Glycogen, Oysters] | -0.3 | –
32 | CC(C)[C@@H]1NC(=O)[C@@H]2CCCN2C(=O)[C@H](C(C)C)NC(=O)CNC(=O)[C@H](C)NC(=O)[C@H](Cc2c[nH]c3ccccc23)NC1=O [Segetalin A] (cyclo(AGVPVW)) | 0.2 | –
33 | COc1nccnc1CC(C)C [2-Isobutyl-3-methoxypyrazine] | -1 | –
34 | CC(C)(O)CC(=O)O [3-Hydroxyisovaleric acid] | -0.3 | –
35 | COC(=O)c1ccc(OC)c(O)c1 [Methyl isovanillate] | 0.2 | –
36 | COc1cc2cc(c1Cl)N(C)C(=O)C[C@H](O)[C@]1(C)O[C@H]1[C@H](C)[C@@H]1C[C@@](O)(NC(=O)O1)[C@H](OC)/C=C/C=C(\C)C2 [Maytansinol] | 6.6 | –
37 | O=C(OCc1ccccc1)c1ccccc1 [Benzyl benzoate] | 4.9 | –
38 | C[C@H]1O[C@@H](O[C@H]2CC[C@@]3(C)[C@@H](CC[C@]4(C)[C@@H]3C=C[C@]35OC[C@@]6(CCC(C)(C)C[C@H]63)[C@H](O)C[C@]54C)[C@]2(C)CO)[C@H](O)[C@@H](O[C@@H]2O[C@H](CO)[C@@H](O)[C@H](O)[C@H]2O)[C@H]1O [Saikosaponin D] | -13.1 | –

Molecules listed so far with an NH in an aromatic ring (2):
Row | SMILES | OC43 Inhibition rate [%] | OC43 Inhibition rate (OC43 Inhibition rate, 24 h) [%]
18 | Oc1ccc2[nH]ccc2c1 [5-Hydroxyindole] | 1.1 | –
32 | CC(C)[C@@H]1NC(=O)[C@@H]2CCCN2C(=O)[C@H](C(C)C)NC(=O)CNC(=O)[C@H](C)NC(=O)[C@H](Cc2c[nH]c3ccccc23)NC1=O [Segetalin A] (cyclo(AGVPVW)) | 0.2 | –
